Experimental data: article PMC10984026
No constants are given. Whether binding was seen depends on the method and setting. In cells and extracts the contact can be indirect. Here binding means that the protein was enriched with, or labelled near, the bait; the list need not be complete.

Chains of the proteins cited; added tags and fusions are not shown. Residues count along the entry.
UniProt Q6YHK3, residues 22-1420: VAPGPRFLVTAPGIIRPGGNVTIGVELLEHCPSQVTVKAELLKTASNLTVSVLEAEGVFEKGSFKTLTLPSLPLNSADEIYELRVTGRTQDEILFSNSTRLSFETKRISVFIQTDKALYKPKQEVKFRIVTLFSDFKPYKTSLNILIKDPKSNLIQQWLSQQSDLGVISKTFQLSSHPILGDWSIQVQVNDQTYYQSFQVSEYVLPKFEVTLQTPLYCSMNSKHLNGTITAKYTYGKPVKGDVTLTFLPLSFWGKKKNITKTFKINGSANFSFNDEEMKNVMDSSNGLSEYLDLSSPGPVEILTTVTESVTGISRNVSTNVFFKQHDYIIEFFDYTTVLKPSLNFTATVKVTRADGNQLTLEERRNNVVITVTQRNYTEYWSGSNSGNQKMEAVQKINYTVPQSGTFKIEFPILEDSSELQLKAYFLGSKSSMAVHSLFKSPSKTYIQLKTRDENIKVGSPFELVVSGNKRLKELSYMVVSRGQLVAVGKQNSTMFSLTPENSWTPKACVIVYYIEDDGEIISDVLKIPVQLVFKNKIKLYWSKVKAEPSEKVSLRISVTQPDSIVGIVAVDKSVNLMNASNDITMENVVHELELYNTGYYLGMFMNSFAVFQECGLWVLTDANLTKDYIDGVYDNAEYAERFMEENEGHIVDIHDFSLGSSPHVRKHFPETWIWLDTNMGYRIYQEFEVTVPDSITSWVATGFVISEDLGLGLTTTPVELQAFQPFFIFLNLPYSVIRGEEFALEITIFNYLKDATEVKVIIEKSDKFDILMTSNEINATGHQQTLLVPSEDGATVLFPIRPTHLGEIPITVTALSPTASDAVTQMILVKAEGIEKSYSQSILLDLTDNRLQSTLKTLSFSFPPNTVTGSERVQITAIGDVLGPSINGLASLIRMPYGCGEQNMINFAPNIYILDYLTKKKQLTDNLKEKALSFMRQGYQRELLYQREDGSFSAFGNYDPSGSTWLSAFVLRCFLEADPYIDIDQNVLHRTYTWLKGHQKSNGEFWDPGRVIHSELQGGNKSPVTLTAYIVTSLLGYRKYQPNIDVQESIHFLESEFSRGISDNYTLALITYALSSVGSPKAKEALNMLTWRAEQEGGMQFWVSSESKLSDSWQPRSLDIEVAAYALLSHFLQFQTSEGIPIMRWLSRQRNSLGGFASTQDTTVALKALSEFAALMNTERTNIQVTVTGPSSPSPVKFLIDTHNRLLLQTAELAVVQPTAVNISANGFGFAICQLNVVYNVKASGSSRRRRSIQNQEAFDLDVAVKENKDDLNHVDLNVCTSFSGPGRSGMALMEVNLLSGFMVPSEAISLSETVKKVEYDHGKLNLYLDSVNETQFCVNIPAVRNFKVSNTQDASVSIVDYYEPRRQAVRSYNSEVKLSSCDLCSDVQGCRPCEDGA
UniProt Q14517, residues 22-4588: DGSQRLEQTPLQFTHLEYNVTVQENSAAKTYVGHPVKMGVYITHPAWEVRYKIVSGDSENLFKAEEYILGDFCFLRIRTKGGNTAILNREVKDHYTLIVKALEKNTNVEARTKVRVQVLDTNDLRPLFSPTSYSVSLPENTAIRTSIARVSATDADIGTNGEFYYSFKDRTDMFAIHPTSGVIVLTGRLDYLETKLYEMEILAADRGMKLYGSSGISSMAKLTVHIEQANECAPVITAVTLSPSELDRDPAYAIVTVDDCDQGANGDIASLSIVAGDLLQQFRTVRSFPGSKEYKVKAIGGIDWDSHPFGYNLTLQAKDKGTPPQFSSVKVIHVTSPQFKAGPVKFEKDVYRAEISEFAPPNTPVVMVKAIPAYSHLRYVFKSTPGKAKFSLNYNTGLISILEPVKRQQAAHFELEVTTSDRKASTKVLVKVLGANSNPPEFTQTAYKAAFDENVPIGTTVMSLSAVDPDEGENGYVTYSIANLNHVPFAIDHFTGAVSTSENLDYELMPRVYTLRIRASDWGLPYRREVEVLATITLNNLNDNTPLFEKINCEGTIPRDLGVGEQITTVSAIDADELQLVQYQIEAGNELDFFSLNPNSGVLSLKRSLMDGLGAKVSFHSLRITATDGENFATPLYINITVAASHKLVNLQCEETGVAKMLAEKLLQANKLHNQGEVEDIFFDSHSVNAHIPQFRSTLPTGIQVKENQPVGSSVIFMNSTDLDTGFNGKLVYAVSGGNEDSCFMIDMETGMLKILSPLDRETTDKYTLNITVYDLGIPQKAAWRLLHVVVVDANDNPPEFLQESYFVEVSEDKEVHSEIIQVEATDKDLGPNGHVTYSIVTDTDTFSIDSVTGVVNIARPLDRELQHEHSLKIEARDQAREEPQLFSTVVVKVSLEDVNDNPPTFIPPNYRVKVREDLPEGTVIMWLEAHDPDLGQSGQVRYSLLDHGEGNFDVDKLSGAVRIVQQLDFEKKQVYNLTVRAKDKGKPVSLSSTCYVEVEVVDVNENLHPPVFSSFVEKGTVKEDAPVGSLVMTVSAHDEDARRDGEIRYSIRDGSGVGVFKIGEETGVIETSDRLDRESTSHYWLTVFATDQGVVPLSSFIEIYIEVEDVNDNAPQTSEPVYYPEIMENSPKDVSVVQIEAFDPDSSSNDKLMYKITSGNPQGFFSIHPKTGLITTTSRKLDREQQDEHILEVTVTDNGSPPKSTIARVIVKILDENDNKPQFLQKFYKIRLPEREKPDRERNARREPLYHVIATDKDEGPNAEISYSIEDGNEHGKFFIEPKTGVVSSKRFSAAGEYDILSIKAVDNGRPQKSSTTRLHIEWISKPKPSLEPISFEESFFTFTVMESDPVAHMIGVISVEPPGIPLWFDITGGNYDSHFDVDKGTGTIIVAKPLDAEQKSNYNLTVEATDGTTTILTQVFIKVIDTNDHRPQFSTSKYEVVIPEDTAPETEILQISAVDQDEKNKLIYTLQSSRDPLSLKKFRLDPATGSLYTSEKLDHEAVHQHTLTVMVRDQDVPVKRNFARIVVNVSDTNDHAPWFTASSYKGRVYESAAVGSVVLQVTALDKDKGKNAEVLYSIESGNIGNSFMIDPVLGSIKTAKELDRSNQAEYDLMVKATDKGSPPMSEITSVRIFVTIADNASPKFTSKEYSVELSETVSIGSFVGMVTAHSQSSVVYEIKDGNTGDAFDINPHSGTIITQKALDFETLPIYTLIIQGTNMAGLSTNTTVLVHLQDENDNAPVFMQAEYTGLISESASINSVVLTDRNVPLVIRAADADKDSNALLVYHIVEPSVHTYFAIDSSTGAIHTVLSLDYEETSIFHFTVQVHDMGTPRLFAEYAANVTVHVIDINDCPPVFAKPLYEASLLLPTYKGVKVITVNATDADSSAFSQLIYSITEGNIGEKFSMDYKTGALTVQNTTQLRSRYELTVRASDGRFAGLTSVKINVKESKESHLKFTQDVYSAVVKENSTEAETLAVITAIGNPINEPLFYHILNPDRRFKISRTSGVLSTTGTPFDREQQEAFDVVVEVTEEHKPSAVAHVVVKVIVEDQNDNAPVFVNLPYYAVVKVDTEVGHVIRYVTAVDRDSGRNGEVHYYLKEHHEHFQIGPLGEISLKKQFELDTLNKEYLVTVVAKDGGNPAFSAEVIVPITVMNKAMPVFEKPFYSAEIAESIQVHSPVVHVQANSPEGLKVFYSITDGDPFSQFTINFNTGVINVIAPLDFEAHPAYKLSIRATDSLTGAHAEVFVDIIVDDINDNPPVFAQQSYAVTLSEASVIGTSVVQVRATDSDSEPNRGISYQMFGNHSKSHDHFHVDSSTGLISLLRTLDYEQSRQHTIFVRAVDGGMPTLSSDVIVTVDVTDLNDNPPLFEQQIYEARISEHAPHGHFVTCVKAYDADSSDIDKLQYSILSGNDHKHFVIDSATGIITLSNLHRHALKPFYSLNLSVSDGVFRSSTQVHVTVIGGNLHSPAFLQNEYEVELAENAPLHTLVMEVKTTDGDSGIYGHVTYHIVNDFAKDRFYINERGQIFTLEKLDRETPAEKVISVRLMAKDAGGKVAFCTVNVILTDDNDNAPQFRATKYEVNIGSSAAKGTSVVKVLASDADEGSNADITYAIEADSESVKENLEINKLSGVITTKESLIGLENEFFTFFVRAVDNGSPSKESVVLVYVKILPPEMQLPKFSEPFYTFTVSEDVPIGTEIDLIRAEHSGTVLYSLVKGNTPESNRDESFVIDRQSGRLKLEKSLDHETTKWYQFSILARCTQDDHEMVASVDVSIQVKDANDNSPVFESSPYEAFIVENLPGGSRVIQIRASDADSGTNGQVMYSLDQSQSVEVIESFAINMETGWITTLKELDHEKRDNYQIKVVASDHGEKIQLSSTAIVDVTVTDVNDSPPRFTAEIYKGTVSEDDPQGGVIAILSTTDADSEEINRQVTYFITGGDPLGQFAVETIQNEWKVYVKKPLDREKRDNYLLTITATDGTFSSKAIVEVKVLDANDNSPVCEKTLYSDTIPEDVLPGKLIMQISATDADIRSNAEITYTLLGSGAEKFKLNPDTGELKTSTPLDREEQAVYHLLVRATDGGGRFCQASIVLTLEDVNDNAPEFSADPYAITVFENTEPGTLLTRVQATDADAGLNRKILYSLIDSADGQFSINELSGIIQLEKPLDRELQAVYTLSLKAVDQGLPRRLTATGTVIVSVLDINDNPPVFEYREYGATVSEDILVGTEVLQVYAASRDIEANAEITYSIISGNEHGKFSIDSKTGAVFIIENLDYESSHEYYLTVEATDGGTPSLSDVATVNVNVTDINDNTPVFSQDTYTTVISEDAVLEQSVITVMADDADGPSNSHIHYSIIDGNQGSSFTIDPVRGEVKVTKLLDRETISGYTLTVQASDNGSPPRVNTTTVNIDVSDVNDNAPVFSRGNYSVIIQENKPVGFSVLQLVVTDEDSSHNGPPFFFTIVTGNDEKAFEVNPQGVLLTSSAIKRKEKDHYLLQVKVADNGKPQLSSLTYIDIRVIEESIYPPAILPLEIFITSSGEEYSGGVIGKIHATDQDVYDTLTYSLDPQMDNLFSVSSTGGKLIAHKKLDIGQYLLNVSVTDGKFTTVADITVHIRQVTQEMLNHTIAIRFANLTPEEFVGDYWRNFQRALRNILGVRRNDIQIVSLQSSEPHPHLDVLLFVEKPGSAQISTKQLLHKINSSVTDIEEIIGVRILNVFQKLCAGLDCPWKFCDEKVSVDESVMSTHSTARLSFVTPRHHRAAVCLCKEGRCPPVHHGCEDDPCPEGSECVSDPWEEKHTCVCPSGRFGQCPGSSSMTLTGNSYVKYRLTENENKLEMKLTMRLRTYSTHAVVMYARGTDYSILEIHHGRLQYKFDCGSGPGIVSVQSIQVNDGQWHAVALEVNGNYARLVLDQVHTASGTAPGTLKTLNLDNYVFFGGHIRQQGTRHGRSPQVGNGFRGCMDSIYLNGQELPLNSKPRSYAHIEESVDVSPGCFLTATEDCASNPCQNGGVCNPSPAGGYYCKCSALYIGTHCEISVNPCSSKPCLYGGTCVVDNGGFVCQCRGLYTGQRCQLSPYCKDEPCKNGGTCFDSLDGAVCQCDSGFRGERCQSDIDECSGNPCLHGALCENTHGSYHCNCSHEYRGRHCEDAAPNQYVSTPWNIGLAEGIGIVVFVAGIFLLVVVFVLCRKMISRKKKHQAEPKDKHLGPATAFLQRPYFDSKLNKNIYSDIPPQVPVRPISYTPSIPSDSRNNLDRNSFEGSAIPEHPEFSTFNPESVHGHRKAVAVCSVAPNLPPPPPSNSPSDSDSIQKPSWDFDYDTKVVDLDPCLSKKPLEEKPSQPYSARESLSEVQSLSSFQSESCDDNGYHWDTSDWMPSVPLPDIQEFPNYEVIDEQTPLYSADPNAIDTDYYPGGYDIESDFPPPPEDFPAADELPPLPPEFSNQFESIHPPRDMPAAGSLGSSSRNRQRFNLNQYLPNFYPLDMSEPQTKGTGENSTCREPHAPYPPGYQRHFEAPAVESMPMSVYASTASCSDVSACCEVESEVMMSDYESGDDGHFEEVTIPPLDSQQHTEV

B1: desmocollin-1 (DSC1) (protein, UniProt Q08554 135-894)
chain: RWAPIPASLMENSLGPFPQHVQQIQSDAAQNYTIFYSISGPGVDKEPFNLFYIEKDTGDIFCTRSIDREKYEQFALYGYATTADGYAPEYPLPLIIKIEDDNDNAPYFEHRVTIFTVPENCRSGTSVGKVTATDLDEPDTLHTRLKYKILQQIPDHPKHFSIHPDTGVITTTTPFLDREKCDTYQLIMEVRDMGGQPFGLFNTGTITISLEDENDNPPSFTETSYVTEVEENRIDVEILRMKVQDQDLPNTPHSKAVYKILQGNENGNFIISTDPNTNEGVLCVVKPLNYEVNRQVILQVGVINEAQFSKAASSQTPTMCTTTVTVKIIDSDEGPECHPPVKVIQSQDGFPAGQELLGYKALDPEISSGEGLRYQKLGDEDNWFEINQHTGDLRTLKVLDRESKFVKNNQYNISVVAVDAVGRSCTGTLVVHLDDYNDHAPQIDKEVTICQNNEDFAVLKPVDPDGPENGPPFQFFLDNSASKNWNIEEKDGKTAILRQRQNLDYNYYSVPIQIKDRHGLVATHMLTVRVCDCSTPSECRMKDKSTRDVRPNVILGRWAILAMVLGSVLLLCILFTCFCVTAKRTVKKCFPEDIAQQNLIVSNTEGPGEEVTEANIRLPMQTSNICDTSMSVGTVGGQGIKTQQSFEMVKGGYTLDSNKGGGHQTLESVKGVGQGDTGRYAYTDWQSFTQPRLGEKVYLCGQDEEHKHCEDYVCSYNYEGKGSLAGSVGCCSDRQEEEGLEFLDHLEPKFRTLAKTCIKK

Biological target: N-terminally HA-tagged CD109 (cluster of differentiation 109) (UniProt Q6YHK3)
Assay: affinity purification with mass spectrometry; N-terminally HA-tagged CD109 in HEK293T; membrane fraction isolated by snap freezing, lysed, precipitated with anti-HA-tag antibody; co-precipitated proteins identified by LC-MS protein fingerprinting

| binding | Molecule |
| --- | --- |
| binds | desmocollin-2 (DSC2) (from UniProt Q02487 136-901) |
| binds | desmoglein-1 (DSG1) (from UniProt Q02413 50-1049) |
| binds | desmoglein-2 (DSG2), endogenous (from UniProt Q14126 50-1118) |
| binds | protocadherin FAT1 (from UniProt Q14517 22-4588) |
| binds | B1 |
